Reference: US6989356B2, “Partially-fluorinated-alkyl compound, lubricant comprising the compound, and recording medium using the lubricant” (Sony Corp., priority 2002, dated 2006)

How the values were obtained:
[1] = Coefficient of friction of sample tape coated with the lubricant; details: after the 100th-cycle transport, coating weight 5 mg/m^2 on carbon film layer
[2] = Still durability of sample tape coated with the lubricant; details: period of time until the replay output was lowered by 3 dB
[3] = Shuttle durability of sample tape coated with the lubricant; details: 100-cycle transport in Play mode, output change between initial and 100th cycle

2,3-Naphthalenediol [Exp. 8]
Coefficient of friction (40° C., 80% RH) [1]: 0.21
Still durability (min) (−5° C.) [2]: >120 min

2,3-Naphthalenediol [Exp. 11]
Coefficient of friction (40° C., 80% RH) [1]: 0.21
Still durability (min) (−5° C.) [2]: >120 min

CCCCCCCCCCCCCCCCCCC(CC(=O)OCCC(F)(F)C(F)(F)C(F)(F)C(F)(F)C(F)(F)C(F)(F)C(F)(F)C(F)(F)F)C(=O)OCc1c2ccccc2cc2ccccc12 (stereo not shown) [Exp. 21, C18H37—CH(CH2COOCH2CH2(CF2)8) COOCH2C14H9]
Coefficient of friction (40° C., 80% RH) [1]: 0.20
Still durability (min) (−5° C.) [2]: >120 min
Shuttle durability (dB) (40° C., 20% RH) [3]: −1.8 dB

2,3-Naphthalenediol [Exp. 9]
Coefficient of friction (40° C., 80% RH) [1]: 0.21
Still durability (min) (−5° C.) [2]: >120 min

CCCCCCCCCCCCCCCCCCC(CC(=O)OCCC(F)(F)C(F)(F)C(F)(F)C(F)(F)C(F)(F)C(F)(F)C(F)(F)C(F)(F)F)C(=O)Oc1ccc(-c2ccccc2)cc1 (stereo not shown) [Exp. 27, C18H37—CH(CH2COOCH2CH2(CF2)8) COOC6H4C6H5]
Coefficient of friction (40° C., 80% RH) [1]: 0.20
Still durability (min) (−5° C.) [2]: >120 min
Shuttle durability (dB) (40° C., 20% RH) [3]: −1.7 dB

C18H37CH(COOH)CH2COOCH2CF(CF3)[CF(CF3)CF2O]3F [Comp. Exp. 4, reference compound]
Coefficient of friction (40° C., 80% RH) [1]: 0.25
Still durability (min) (−5° C.) [2]: 10 min

2,3-Naphthalenediol [Exp. 12]
Coefficient of friction (40° C., 80% RH) [1]: 0.25
Still durability (min) (−5° C.) [2]: >120 min

2,3-Naphthalenediol [Exp. 18]
Coefficient of friction (40° C., 80% RH) [1]: 0.20
Still durability (min) (−5° C.) [2]: >120 min

CCCCCCCCCCCCCCCCCCN [Comp. Exp. 1, C18H37NH2, reference compound]
Coefficient of friction (40° C., 80% RH) [1]: 0.20
Still durability (min) (−5° C.) [2]: 3 min
Shuttle durability (dB) (40° C., 20% RH) [3]: −6.0 dB

2,3-Naphthalenediol [Exp. 14]
Coefficient of friction (40° C., 80% RH) [1]: 0.23
Still durability (min) (−5° C.) [2]: >120 min

COC(=O)C(F)(F)C(F)(F)C(F)(F)C(F)(F)C(F)(F)C(F)(F)C(F)(F)C(F)(F)C(F)(F)C(F)(F)C(F)(F)C(F)(F)C(F)(F)C(F)(F)C(F)(F)C(F)(F)C(F)(F)C(F)(F)F [Comp. Exp. 2, C8F17(CF2)10COOCH3, reference compound]
Coefficient of friction (40° C., 80% RH) [1]: 0.35
Still durability (min) (−5° C.) [2]: 50 min
Shuttle durability (dB) (40° C., 20% RH) [3]: −5.0 dB

2,3-Naphthalenediol [Exp. 13]
Coefficient of friction (40° C., 80% RH) [1]: 0.25
Still durability (min) (−5° C.) [2]: >120 min

C18H37—CH(CH2COO(CH2)2(CF2)8F)COOC10H6OH [Exp. 17]
Coefficient of friction (40° C., 80% RH) [1]: 0.20
Still durability (min) (−5° C.) [2]: >120 min

C18H37—CH(CH2COOCH2CH2(CF2)8) COO C6H4F [Exp. 25]
Coefficient of friction (40° C., 80% RH) [1]: 0.22
Still durability (min) (−5° C.) [2]: >120 min

C18H37—CH(CH2COOC18H37)COO C10H6OH [Exp. 10]
Coefficient of friction (40° C., 80% RH) [1]: 0.21
Still durability (min) (−5° C.) [2]: >120 min

2,3-Naphthalenediol [Exp. 19]
Coefficient of friction (40° C., 80% RH) [1]: 0.20
Still durability (min) (−5° C.) [2]: >120 min

CCCCCCCCCCCCCCCCCCC(CC(=O)OCCC(F)(F)C(F)(F)C(F)(F)C(F)(F)C(F)(F)C(F)(F)C(F)(F)C(F)(F)F)C(=O)Oc1ccccc1 (stereo not shown) [Exp. 20, C18H37—CH(CH2COOCH2CH2(CF2)8)COO C6H5]
Coefficient of friction (40° C., 80% RH) [1]: 0.20
Still durability (min) (−5° C.) [2]: >120 min
Shuttle durability (dB) (40° C., 20% RH) [3]: −1.8 dB

CCCCCCCCCCCCCCCCCCC(CC(=O)OCCC(F)(F)C(F)(F)C(F)(F)C(F)(F)C(F)(F)C(F)(F)C(F)(F)C(F)(F)F)C(=O)Oc1ccc(N)cc1 (stereo not shown) [Exp. 24, C18H37—CH(CH2COOCH2CH2(CF2)8) COOC6H4NH]
Coefficient of friction (40° C., 80% RH) [1]: 0.20
Still durability (min) (−5° C.) [2]: >120 min
Shuttle durability (dB) (40° C., 20% RH) [3]: −1.8 dB

CCCCCCCCCCCCCCCCCCC(CC(=O)OCCC(F)(F)C(F)(F)C(F)(F)C(F)(F)C(F)(F)C(F)(F)C(F)(F)C(F)(F)F)C(=O)Oc1ccc(C(=O)O)cc1 (stereo not shown) [Exp. 26, C18H37—CH(CH2COOCH2CH2(CF2)8) COOC6H4COOH]
Coefficient of friction (40° C., 80% RH) [1]: 0.22
Still durability (min) (−5° C.) [2]: >120 min
Shuttle durability (dB) (40° C., 20% RH) [3]: −1.6 dB

CCCCCCCCCCCCCCCCCCC(CC(=O)OCCC(F)(F)C(F)(F)C(F)(F)C(F)(F)C(F)(F)C(F)(F)C(F)(F)C(F)(F)F)C(=O)Oc1ccccc1C (stereo not shown) [Exp. 23, C18H37—CH(CH2COOCH2CH2(CF2)8)COOC6H4CH3]
Coefficient of friction (40° C., 80% RH) [1]: 0.20
Still durability (min) (−5° C.) [2]: >120 min
Shuttle durability (dB) (40° C., 20% RH) [3]: −1.9 dB

2,3-Naphthalenediol [Exp. 15]
Coefficient of friction (40° C., 80% RH) [1]: 0.20
Still durability (min) (−5° C.) [2]: >120 min

CCCCCCCCCCCCCCCCCCC(CC(=O)OCCC(F)(F)C(F)(F)C(F)(F)C(F)(F)C(F)(F)C(F)(F)C(F)(F)C(F)(F)F)C(=O)Oc1ccncc1 (stereo not shown) [Exp. 22, C18H37—CH(CH2COOCH2CH2(CF2)8) COO C5H4N]
Coefficient of friction (40° C., 80% RH) [1]: 0.20
Still durability (min) (−5° C.) [2]: >120 min
Shuttle durability (dB) (40° C., 20% RH) [3]: −1.8 dB

2,3-Naphthalenediol [Exp. 16]
Coefficient of friction (40° C., 80% RH) [1]: 0.20
Still durability (min) (−5° C.) [2]: >120 min
